According to patent publication US5082942A, “Novel derivatives of tetrahydro-2,3,6,7,1H,5H,11H-(1)benzopyrano(6,7,8,ij)quinolizinone-11 usable as markers of organic compounds for the detection of said compounds by chemiluminescence or fluorescence” (Laboratories Eurobio, priority 1988, dated 1992):

Assays:
[1] = Detection limit in liquid chromatography with detection by chemiluminescence (TCPO or DNPO and H2O2)
[2] = Detection limit in liquid chromatography with fluorimetric detection; details: for Detection Limit, Fluorescence: Table 1

| SMILES | Detection Limit, Chemiluminescence ([1]; Table 1, neither TCPO nor DNPO stated) [fmol] | Detection Limit, Chemiluminescence (DNPO) ([1]; Table 1) [fmol] | Detection Limit, Chemiluminescence (TCPO) ([1]; Table 1) [fmol] | Detection Limit, Fluorescence [2] [fmol] | detection limit with detection by chemiluminescence ([1]; injected) [fmol] | detection limit in liquid chromatography with fluorimetric detection ([2]; excitation 380 nm, emission high-pass filter 470 nm) [fmol] |
| --- | --- | --- | --- | --- | --- | --- |
| CCN(CCCCN)c1ccc2c(=O)[nH][nH]c(=O)c2c1 [Aminobutyl-ethyl isoluminol] | 20 |  |  |  |  |  |
| CN(C)c1cccc2c(S(=O)(=O)Cl)cccc12 [Dansyl chloride] |  | 5 | 10 | 100 |  |  |
| O=C1OC2(OC=C(c3ccccc3)C2=O)c2ccccc21 (stereo not shown) [Fluorescamine] |  |  | 25 | 500 |  |  |
| O=Cc1ccccc1C=O [Orthophthaladehyde] |  |  | 94 | 2100 |  |  |
| CCCCCNC(=O)Cc1cc(=O)oc2c3c4c(cc12)CCCN4CCC3 [derivative of pentylamine and luminarine] |  |  |  |  | 2 | 380 |
| O=C(Cc1cc(=O)oc2c3c4c(cc12)CCCN4CCC3)ON1C(=O)CCC1=O [luminarine-1, tetrahydro-2,3,6,7,1H,5H, 11H(1)-benzo-pyrano(6,7,8-ij) succinimidoxycarbonylmethyl-9 quinolizinone-11] |  | 1 | 2 | 380 |  |  |
